{"source": "PubChem BioAssay AID504786 (Drosophila RNAi Screening Center, 2011)", "assay": "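Fly genes required for HIF-dependent transcription when hypoxia is mimicked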 (primary screen)", "cells": "Drosophila S2 cells with a stable HIF luciferase reporter", "reagent": "long dsRNA against Drosophila genes, about 0.2 µg dsRNA per well of a 384-well plate", "time to read-out": "three days of knock-down, then 20 h of DFO before reading", "conditions": "desferrioxamine (DFO) at 100 µM, an iron chelator that mimics hypoxia, for 20 h", "read-out": "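HIF reporter luminescence in cells given 100 µM DFO for 20 h, using the mouse ldh-a hypoxia-response element, scored as per-plate z-scores; higher means greater loss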", "scale": "z-score: higher = stronger loss of HIF reporter signal", "note": "In all, the deposit lists about 21,000 reagents; below is an unselected part of those with a known target gene and a result. 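Primary screen; positive scores mean lost reporter signal, so the sign may be inverted from the usual convention.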 The numbers tell different reagents against one gene apart. A plus sign joins genes that one reagent is predicted to hit. Reagent sequences are not shown."}
{"Gene": "ash2", "reagent no.": 1, "z-score, replicate 1": -0.3, "z-score, replicate 2": -0.6}
{"Gene": "Cngl", "reagent no.": 1, "z-score, replicate 1": 1.6, "z-score, replicate 2": 1.7}
{"Gene": "CR40450 + CG32767", "reagent no.": 1, "z-score, replicate 1": -0.2, "z-score, replicate 2": 0.9}
{"Gene": "CG12439", "reagent no.": 1, "z-score, replicate 1": -0.3, "z-score, replicate 2": -0.1}
{"Gene": "wge", "reagent no.": 1, "z-score, replicate 1": -0.3, "z-score, replicate 2": -0.5}
{"Gene": "wge", "reagent no.": 2, "z-score, replicate 1": -0.2, "z-score, replicate 2": -0.1}
{"Gene": "CG3902", "reagent no.": 1, "z-score, replicate 1": -0.2, "z-score, replicate 2": 0.5}
{"Gene": "Gr23a", "reagent no.": 1, "z-score, replicate 1": -0.4, "z-score, replicate 2": -0.5}
{"Gene": "CG42390", "reagent no.": 1, "z-score, replicate 1": -0.3, "z-score, replicate 2": -0.5}
{"Gene": "Dhc1", "reagent no.": 1, "z-score, replicate 1": -0.4, "z-score, replicate 2": -0.8}
{"Gene": "Swim", "reagent no.": 1, "z-score, replicate 1": -0.2, "z-score, replicate 2": 0.1}

Targets listed so far whose target name starts with W or w (2):
{"Gene": "wge", "reagent no.": 1, "z-score, replicate 1": -0.3, "z-score, replicate 2": -0.5}
{"Gene": "wge", "reagent no.": 2, "z-score, replicate 1": -0.2, "z-score, replicate 2": -0.1}

Additional results follow:
{"Gene": "CG34181", "reagent no.": 1, "z-score, replicate 1": -0.1, "z-score, replicate 2": 0.4}
{"Gene": "Rala", "reagent no.": 1, "z-score, replicate 1": -0.2, "z-score, replicate 2": -0.2}
{"Gene": "Cdc27", "reagent no.": 1, "z-score, replicate 1": 3.6, "z-score, replicate 2": 2.8}
{"Gene": "JMJD7", "reagent no.": 1, "z-score, replicate 1": 0.2, "z-score, replicate 2": -0.2}
{"Gene": "NfI", "reagent no.": 1, "z-score, replicate 1": -0.3, "z-score, replicate 2": -0.1}
{"Gene": "lectin-28C", "reagent no.": 1, "z-score, replicate 1": -0.3, "z-score, replicate 2": -0.5}
{"Gene": "atms", "reagent no.": 1, "z-score, replicate 1": 3.8, "z-score, replicate 2": 2.4}
{"Gene": "Odc2", "reagent no.": 1, "z-score, replicate 1": 0, "z-score, replicate 2": -0.4}
{"Gene": "Afti", "reagent no.": 1, "z-score, replicate 1": -0.4, "z-score, replicate 2": -0.6}
{"Gene": "mRpS22", "reagent no.": 1, "z-score, replicate 1": 0.5, "z-score, replicate 2": 0.6}
{"Gene": "DCX-EMAP", "reagent no.": 1, "z-score, replicate 1": -0.3, "z-score, replicate 2": 0.3}
{"Gene": "DCX-EMAP", "reagent no.": 2, "z-score, replicate 1": 0.7, "z-score, replicate 2": 0.6}
{"Gene": "CG9813", "reagent no.": 1, "z-score, replicate 1": 0.2, "z-score, replicate 2": 0.6}
{"Gene": "CG12684", "reagent no.": 1, "z-score, replicate 1": -0.3, "z-score, replicate 2": -0.2}
{"Gene": "CG18528", "reagent no.": 1, "z-score, replicate 1": -0.3, "z-score, replicate 2": -0.6}
{"Gene": "CG30460", "reagent no.": 1, "z-score, replicate 1": -0.1, "z-score, replicate 2": 0}
{"Gene": "CG30460", "reagent no.": 2, "z-score, replicate 1": 4.2, "z-score, replicate 2": 2.4}
